Entries after “also recorded” stand apart in the source; their conditions may differ. At least one compound was matched to its structure with a doubt left.
What was measured:
[1] = test system: Cell Line 1 (CHO) expressing Antibody 1; assay: Cell culture performance (cell growth, viability, titer), Cell Line 1 3 L bioreactor fed-batch culture; assay type: cell-based, Chinese Hamster; conditions: 0.1 g/L in CDFM, Day 15 harvest
Protocol: A recombinant Chinese Hamster Ovary (CHO) cell line (Cell Line 1) expressing a humanized monoclonal antibody (Antibody 1) was evaluated in 2 different cultures vessels (shaker flasks and 3 L laboratory-scale bioreactors). The cell line was of CHO DUX-B11 origin based on a DHFR (dihydrofolate reductase) expression system and cultured in a chemically defined basal media, and fed periodically with a chemically-defined feed media (CDFM). The media utilized throughout all of the experiments were chemically-defined, and both animal-component free, and protein-free. […]
Viable cell density (VCD) and cell viability values were measured through trypan blue exclusion via Cedex automated cell counters (Roche Applied Science, Indianapolis, Ind.), glucose and lactate values were measured with a ABL-805 (Radiometer Medical, Denmark) blood gas analyzer. […] Osmolality was measured as needed on a Multi-Osmette 2430 osmometer (Precision Systems, Natick, Mass.).
Antibody titers were measured from crude cell culture harvests on a Poros A™ (Life Technologies, Carlsbad, Calif.) affinity column using an HPLC system operating with a low pH, step elution gradient with detection at 280 nm. […]
Cell Line 1 was evaluated in larger-scale feed batch cultures with the feed media supplemented with various bioflavonoids. […] The harvest titers measured from the evaluated cultures were similar. […]

[2] = test system: recombinant CHO cell lines; assay: Harvest titer / productivity summary across bioflavonoid supplemented cultures; assay type: cell-based, Chinese Hamster; conditions: supplementation up to 0.2 g/L
Protocol: Four different recombinant Chinese Hamster Ovary (CHO) cell lines expressing four different recombinant glycoproteins were evaluated in either shaker flask culture, or 3 L laboratory scale bioreactors. Cell Line 1 was genetically engineered to express Antibody 1, Cell Line 2 was genetically engineered to express Antibody 2, Cell Line 3 was genetically engineered to express dual variable domain immunoglobulin 1 (DVD1) and Cell Line 4 was genetically engineered to express dual variable domain immunoglobulin 2 (DVD2).
Protein A Affinity Chromatography-Antibody titers were measured from crude cell culture harvests on a Poros ATM (Life Technologies, Carlsbad, Calif.) affinity column using an HPLC system operating with a low pH, step elution gradient with detection at 280 nm. Absolute concentrations were assigned with respect to reference standard calibration curves.

## C[C@@H]1O[C@@H](OC[C@H]2O[C@@H](Oc3c(-c4ccc(O)c(O)c4)oc4cc(O)cc(O)c4c3=O)[C@H](O)[C@@H](O)[C@@H]2O)[C@H](O)[C@H](O)[C@H]1O [rutin]
[1]
  harvest titer vs control: outperforming the control condition by a nominal amount; also recorded: outperformed the control condition by a nominal amount
[2]
  recombinant protein productivity: only nominally impacted
